From paper PMC4287497, “Phosphorylation of Elp1 by Hrr25 Is Required for Elongator-Dependent tRNA Modification in Yeast” (PLoS Genetics, 2015)
Results are given in words; binding and its absence hold for the method and conditions named. Binding seen in cells or lysates may run through a third protein. Some results given as binding are weak or reduced against the parent protein; the word gives no strength. For some assays here: Tags and fused reporters may be left off the sequences shown.

T1: Elp1-S1198E S1202E-6HA (S. cerevisiae) (UniProt Q06706)
T1 sequence: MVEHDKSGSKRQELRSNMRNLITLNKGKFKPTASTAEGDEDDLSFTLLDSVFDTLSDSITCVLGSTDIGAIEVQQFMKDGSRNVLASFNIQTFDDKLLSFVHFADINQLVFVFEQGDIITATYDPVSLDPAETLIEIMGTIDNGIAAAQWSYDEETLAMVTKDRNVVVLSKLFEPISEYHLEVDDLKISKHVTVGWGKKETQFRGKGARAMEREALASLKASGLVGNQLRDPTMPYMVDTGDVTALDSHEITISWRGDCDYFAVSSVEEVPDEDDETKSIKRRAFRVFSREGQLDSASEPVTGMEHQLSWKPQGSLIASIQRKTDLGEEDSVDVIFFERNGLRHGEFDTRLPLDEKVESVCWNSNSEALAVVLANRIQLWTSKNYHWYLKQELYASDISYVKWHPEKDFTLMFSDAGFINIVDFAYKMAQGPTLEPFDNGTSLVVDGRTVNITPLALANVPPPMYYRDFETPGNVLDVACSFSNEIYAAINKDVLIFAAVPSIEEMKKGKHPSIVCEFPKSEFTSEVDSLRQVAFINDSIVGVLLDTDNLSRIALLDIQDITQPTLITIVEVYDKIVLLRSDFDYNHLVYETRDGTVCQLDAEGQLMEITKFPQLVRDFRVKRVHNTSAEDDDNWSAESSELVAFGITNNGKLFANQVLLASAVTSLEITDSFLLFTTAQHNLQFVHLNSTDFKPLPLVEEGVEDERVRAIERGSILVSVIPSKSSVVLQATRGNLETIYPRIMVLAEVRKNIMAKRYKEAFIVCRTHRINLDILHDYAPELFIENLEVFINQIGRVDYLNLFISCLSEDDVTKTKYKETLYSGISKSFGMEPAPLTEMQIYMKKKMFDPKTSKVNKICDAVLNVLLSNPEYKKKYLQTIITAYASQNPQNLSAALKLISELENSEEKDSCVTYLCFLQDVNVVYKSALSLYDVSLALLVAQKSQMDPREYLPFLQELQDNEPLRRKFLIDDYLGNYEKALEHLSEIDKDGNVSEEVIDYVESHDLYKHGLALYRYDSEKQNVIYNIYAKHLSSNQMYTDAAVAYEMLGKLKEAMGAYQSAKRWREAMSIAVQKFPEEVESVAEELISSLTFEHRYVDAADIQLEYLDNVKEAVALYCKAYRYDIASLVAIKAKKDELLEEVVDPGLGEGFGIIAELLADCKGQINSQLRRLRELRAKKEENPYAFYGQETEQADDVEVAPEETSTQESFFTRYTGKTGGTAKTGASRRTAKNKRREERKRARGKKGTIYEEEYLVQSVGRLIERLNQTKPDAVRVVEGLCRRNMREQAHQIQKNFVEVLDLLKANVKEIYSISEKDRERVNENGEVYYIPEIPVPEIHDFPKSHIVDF

T2: Elp1-GFP (wild-type, genomic copy tagged) (S. cerevisiae) (UniProt Q06706)
T2 sequence: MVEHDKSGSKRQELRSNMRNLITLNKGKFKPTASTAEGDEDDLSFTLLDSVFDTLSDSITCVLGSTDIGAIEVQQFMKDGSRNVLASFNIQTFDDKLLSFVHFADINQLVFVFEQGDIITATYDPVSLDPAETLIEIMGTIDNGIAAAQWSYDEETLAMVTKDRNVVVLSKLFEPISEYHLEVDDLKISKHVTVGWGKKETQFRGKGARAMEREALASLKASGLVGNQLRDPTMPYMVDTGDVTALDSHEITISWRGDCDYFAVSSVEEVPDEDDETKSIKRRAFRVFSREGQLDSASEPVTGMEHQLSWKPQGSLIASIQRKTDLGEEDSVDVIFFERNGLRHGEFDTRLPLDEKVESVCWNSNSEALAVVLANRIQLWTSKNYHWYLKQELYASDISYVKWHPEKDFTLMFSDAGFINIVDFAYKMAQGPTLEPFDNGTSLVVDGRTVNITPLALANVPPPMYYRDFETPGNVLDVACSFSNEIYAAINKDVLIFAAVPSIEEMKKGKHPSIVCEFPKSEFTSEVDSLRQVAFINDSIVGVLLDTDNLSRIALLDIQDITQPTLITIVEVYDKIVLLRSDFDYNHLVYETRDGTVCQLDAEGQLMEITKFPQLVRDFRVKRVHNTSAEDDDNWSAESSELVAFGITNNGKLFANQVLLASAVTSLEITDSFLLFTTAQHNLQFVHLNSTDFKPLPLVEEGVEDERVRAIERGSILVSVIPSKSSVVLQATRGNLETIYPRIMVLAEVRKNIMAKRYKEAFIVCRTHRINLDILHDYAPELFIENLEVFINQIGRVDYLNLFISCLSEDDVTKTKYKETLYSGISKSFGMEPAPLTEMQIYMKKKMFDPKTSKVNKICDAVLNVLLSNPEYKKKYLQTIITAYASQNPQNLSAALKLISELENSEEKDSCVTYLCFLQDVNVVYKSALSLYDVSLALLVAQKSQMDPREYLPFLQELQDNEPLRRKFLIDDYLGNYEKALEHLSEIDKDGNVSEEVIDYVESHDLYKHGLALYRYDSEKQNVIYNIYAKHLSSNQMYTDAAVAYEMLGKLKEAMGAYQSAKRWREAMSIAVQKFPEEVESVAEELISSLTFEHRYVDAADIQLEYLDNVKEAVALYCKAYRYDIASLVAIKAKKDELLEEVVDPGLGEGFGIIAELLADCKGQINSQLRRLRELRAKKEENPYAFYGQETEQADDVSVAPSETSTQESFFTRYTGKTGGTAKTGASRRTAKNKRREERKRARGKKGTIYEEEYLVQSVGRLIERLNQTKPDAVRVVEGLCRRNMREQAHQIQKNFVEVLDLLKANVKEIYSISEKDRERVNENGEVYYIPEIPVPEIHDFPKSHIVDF


What was measured:
[1] = target: T1, Elp1-S1198E S1202E-6HA (S. cerevisiae); assay: co-IP; Elp2-myc immunoprecipitated from extracts of elp1Δ yeast strains carrying plasmid-borne ELP1-6HA alleles (antibody coupled to Dynabeads, B60 buffer); Western blot with anti-myc, anti-HA and anti-Hrr25
[2] = target: T2, Elp1-GFP (wild-type, genomic copy tagged) (S. cerevisiae); assay: co-IP; GFP-tagged Elp1 (genomic locus) precipitated with GFP-trap from yeast extracts; Western blot with anti-GFP and anti-HA; densitometry of Kti12-HA normalised to Elp1-GFP, wild type set to 1.0

Row | binding [1] | binding [2] | Binder
1 | binds | – | Hrr25 protein kinase (casein kinase I), endogenous (enzyme, UniProt P29295 1-494) MDLRVGRKFRIGRKIGSGSFGDIYHGTNLISGEEVAIKLESIRSRHPQLDYESRVYRYLSGGVGIPFIRWFGREGEYNAMVIDLLGPSLEDLFNYCHRRFSFKTVIMLALQMFCRIQYIHGRSFIHRDIKPDNFLMGVGRRGSTVHVIDFGLSKKYRDFNTHRHIPYRENKSLTGTARYASVNTHLGIEQSRRDDLESLGYVLIYFCKGSLPWQGLKATTKKQKYDRIMEKKLNVSVETLCSGLPLEFQEYMAYCKNLKFDEKPDYLFLARLFKDLSIKLEYHNDHLFDWTMLRYTKAMVEKQRDLLIEKGDLNANSNAASASNSTDNKSETFNKIKLLAMKKFPTHFHYYKNEDKHNPSPEEIKQQTILNNNAASSLPEELLNALDKGMENLRQQQPQQQVQSSQPQPQPQQLQQQPNGQRPNYYPEPLLQQQQRDSQEQQQQVPMATTRATQYPPQINSNNFNTNQASVPPQMRSNPQQPPQDKPAGQSIWL
2 | – | binds | Kti12-HA6 (natural protein, S. cerevisiae, UniProt P34253 1-313, looked up, Kti12, accessory protein of Elongator, S. cerevisiae; also called HA-tagged Kti12; source: S. cerevisiae KTI12-HA6 strains, in cell extract) MPLVLFTGYPCSGKTTLAKHLVQLLQSKIDATPSLSKYSITYHSDESLGIKHSDYITSQDERKLRSEIISAVKRDLSKNKIVIVDSLNYIKGFRYQLHCEVKNLSTTFCVIQTLCPPETIFEWNKTSNPNPWEPELLNQLIQRYEEPNSSNRWDSPLFAILTPQDNITDYIDDICKVVFQTSKSAKNSGHNDPLSKGLQKPNSATVLKPASQSNFIQVLDIETSKIIKTIMNHIKSLTSIGGVSNGTRVIVSEGITDINDDGCFFVDLPIGNVVTLAQLQRLKRQFINFNKLRDIDQDRIGPLFADYLNKNLN
